{
  "sequences": {"note": "Sequences of proteins named here, by UniProt entry; tags and fusion partners are left off.", "UniProt Q0JBA9, entry or part of it": "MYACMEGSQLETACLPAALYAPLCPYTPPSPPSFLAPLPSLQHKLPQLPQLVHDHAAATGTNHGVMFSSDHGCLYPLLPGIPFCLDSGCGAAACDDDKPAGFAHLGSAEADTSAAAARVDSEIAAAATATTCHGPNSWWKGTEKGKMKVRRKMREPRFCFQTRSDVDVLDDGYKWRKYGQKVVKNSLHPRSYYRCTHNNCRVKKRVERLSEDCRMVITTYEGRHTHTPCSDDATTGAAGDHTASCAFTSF"},
  "source": "paper PMC7819943",
  "about": "“Rice protein-binding microarrays: a tool to detect cis-acting elements near promoter regions in rice”",
  "note": "The other results are listed elsewhere or left out.",
  "data": [
    {"molecular_target": "OsWRKY34 (Oryza sativa, UniProt Q0JBA9 1-250)", "assay": "protein-binding microarray (RPBM); PBS, 2% BSA, 51.3 ng/ul salmon testes DNA, 50 uM zinc acetate, 200 nM TF, 25 C, 1 h; high values mean tight binding", "conditions": "protein: recombinant; tags: N-terminal polyhistidine and DsRed monomer fusion (pET32a); label: CyDye5-dUTP incorporated in the synthesized complementary strand; 3' TTTTT single-stranded linker to array surface; dsDNA, one strand shown", "procedure,_shortened": "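Polyhistidine-tagged DsRed fusions of transcription factors, joined at the N-terminus, were expressed in E. coli BL21-CodonPlus and isolated on Ni–NTA. They were incubated at 200 nM for 1 h at 25 °C on a custom Agilent array, double-stranded and BSA-blocked, in PBS with 2% BSA, salmon testes DNA and 50 µM zinc acetate. The binding signal is per-feature fluorescence intensity (arbitrary units) read on an Axon 4000B scanner after washing.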", "values": [
      {"sequence": "TGTGCTTTTTAATGTTTTATGGGATTTTTTCTAACTCTCACGGAGTCACCTAGTGCAG", "binding signal": "8710 fluorescence intensity (a.u.)"},
      {"sequence": "TCGGCTCTCCGATCTCGAATTCCCCTGGCTTTCTCGCCTACGGAGTCACCTAGTGCAG", "binding signal": "8350 fluorescence intensity (a.u.)"},
      {"sequence": "CTTTCCGTCTTCCACCCGAGTTGTCGCCGACTAGATCATCCGGAGTCACCTAGTGCAG", "binding signal": "9600 fluorescence intensity (a.u.)"},
      {"sequence": "ACGATATGACGTTTCTACCCCTCATTGCCATGCATTCTACCGGAGTCACCTAGTGCAG", "binding signal": "9220 fluorescence intensity (a.u.)"},
      {"sequence": "TTCCTTTTTCATCTTCTTTTCACATTTTTTCTTTATTTTTCGGAGTCACCTAGTGCAG", "binding signal": "12400 fluorescence intensity (a.u.)"},
      {"sequence": "ATTCCCATTGCTTGTTTGATTGTGGTTTTGCCACAGGGTGCGGAGTCACCTAGTGCAG", "binding signal": "9560 fluorescence intensity (a.u.)"},
      {"sequence": "CACCTACACCGCATCACGTGCCGTCCACCTGGATCTTATCCGGAGTCACCTAGTGCAG", "binding signal": "9190 fluorescence intensity (a.u.)"},
      {"sequence": "TCAAGTTCATCCTCAACCCAAAGTTTTCCTCTCTCTTCTCCGGAGTCACCTAGTGCAG", "binding signal": "8240 fluorescence intensity (a.u.)"},
      {"sequence": "CAATAATTCTTCTGCTCTGCTAATTATTAGCTCTCATCTTCGGAGTCACCTAGTGCAG", "binding signal": "10300 fluorescence intensity (a.u.)"},
      {"sequence": "TTCCATCCGCTATTCTGGCCATCTCTCTAGCTCCTTGTATCGGAGTCACCTAGTGCAG", "binding signal": "14000 fluorescence intensity (a.u.)"},
      {"sequence": "CACCAACACAGTTTGTAATGCATGTGTTCCCTTTTTTGCTCGGAGTCACCTAGTGCAG", "binding signal": "8730 fluorescence intensity (a.u.)"},
      {"sequence": "CTCCTCTCGTTTGGTTCTCCTCTGTCCATGCAGTAACTGACGGAGTCACCTAGTGCAG", "binding signal": "9240 fluorescence intensity (a.u.)"},
      {"sequence": "TTTTCTTATTGAATTGTTGGCTACAATTTTTCTTTGGTTCCGGAGTCACCTAGTGCAG", "binding signal": "8090 fluorescence intensity (a.u.)"},
      {"sequence": "CGTGTTTGGTTGTCCGGACCACACCTGGCTTGCACCTAGCCGGAGTCACCTAGTGCAG", "binding signal": "8820 fluorescence intensity (a.u.)"},
      {"sequence": "CTCAAATAACTCAACGTTGCTCCTGTACACCTCGAACCTCCGGAGTCACCTAGTGCAG", "binding signal": "8680 fluorescence intensity (a.u.)"},
      {"sequence": "AAAGTCATCTTTATCTTCTTCTGCTTGTGCATGTGTGACACGGAGTCACCTAGTGCAG", "binding signal": "8590 fluorescence intensity (a.u.)"},
      {"sequence": "AAGTTTCATTTTCGGTTGTGGGGACATCTATTTGAGCGTGCGGAGTCACCTAGTGCAG", "binding signal": "9070 fluorescence intensity (a.u.)"},
      {"sequence": "ATTACTCTCTCTTTCATGTGCATGCGTGCTAGTTTGCATACGGAGTCACCTAGTGCAG", "binding signal": "8470 fluorescence intensity (a.u.)"},
      {"sequence": "TCTCGCTGAACGCCACGCTGCTCTCCGCTCTTCCTCCAGGCGGAGTCACCTAGTGCAG", "binding signal": "8500 fluorescence intensity (a.u.)"},
      {"sequence": "TATCTTACATCCCAAGGTATTACGTTAACATATTTTGGGTCGGAGTCACCTAGTGCAG", "binding signal": "8750 fluorescence intensity (a.u.)"},
      {"sequence": "TTATGTAATCCAATTCGCATCCGTCGATCACAAACCCACCCGGAGTCACCTAGTGCAG", "binding signal": "9060 fluorescence intensity (a.u.)"},
      {"sequence": "GTTAATTGGTTAATTCCATTGTTTCGCGCTCGTGGTTTCTCGGAGTCACCTAGTGCAG", "binding signal": "15600 fluorescence intensity (a.u.)"},
      {"sequence": "GTTTTGGGTCTCGGATTGATCGCTTGGAGCTCCATTGCCACGGAGTCACCTAGTGCAG", "binding signal": "9220 fluorescence intensity (a.u.)"},
      {"sequence": "GAGTTGGTTGTCCTATAGGACGAGGCTTGGGAAGTGTTGACGGAGTCACCTAGTGCAG", "binding signal": "8420 fluorescence intensity (a.u.)"},
      {"sequence": "GATGTTCAATTCTCATGTTCTTATACTATATCGCACCCACCGGAGTCACCTAGTGCAG", "binding signal": "9990 fluorescence intensity (a.u.)"},
      {"sequence": "ATCCTAGTCTCTTGCTCCTTTTGTGGAGTGTTCTTTCTGTCGGAGTCACCTAGTGCAG", "binding signal": "8840 fluorescence intensity (a.u.)"},
      {"sequence": "TAGTTCCTTTCTTGACTTTTTTTTCCTTTTCTGCCCCTATCGGAGTCACCTAGTGCAG", "binding signal": "10200 fluorescence intensity (a.u.)"},
      {"sequence": "GTTTGCATCCATCGTCTACCCGATACACCGGCGCTCTCCGCGGAGTCACCTAGTGCAG", "binding signal": "9820 fluorescence intensity (a.u.)"},
      {"sequence": "GTCGAAATCCCATTTCCTTTCAGCGACCGCACAGAAACCTCGGAGTCACCTAGTGCAG", "binding signal": "8070 fluorescence intensity (a.u.)"},
      {"sequence": "AGCCATAAATCACACCCATTCATCTCTCTCAACTCTCTGCCGGAGTCACCTAGTGCAG", "binding signal": "8460 fluorescence intensity (a.u.)"},
      {"sequence": "TGTTCATCTACTATATGATTGTGTGCATGATATCATCGTCCGGAGTCACCTAGTGCAG", "binding signal": "9620 fluorescence intensity (a.u.)"},
      {"sequence": "AAGTTGTGGTTTGATGGAGAAGATAAGCTAATTCCTTGGTCGGAGTCACCTAGTGCAG", "binding signal": "8430 fluorescence intensity (a.u.)"},
      {"sequence": "CCAACCCTGCCTTCCGCACGCCGCACCTCCGCACCGCCTACGGAGTCACCTAGTGCAG", "binding signal": "10700 fluorescence intensity (a.u.)"},
      {"sequence": "CTCATCTCATCTCCACCGTCAATTCGTTTCGCTATCCTCCCGGAGTCACCTAGTGCAG", "binding signal": "11200 fluorescence intensity (a.u.)"},
      {"sequence": "CCTATGCGTGATCCGCAACCGCTCTCAACCTCCAAGAGCTCGGAGTCACCTAGTGCAG", "binding signal": "8690 fluorescence intensity (a.u.)"},
      {"sequence": "ACGCGGGCGAGGTTGGTTGGCTTGTTCTTTCGTTGATGTGCGGAGTCACCTAGTGCAG", "binding signal": "14300 fluorescence intensity (a.u.)"},
      {"sequence": "ACAGGGGAGGGGCGGCGATCTCCATCCGGCGAGCGGAGCACGGAGTCACCTAGTGCAG", "binding signal": "12200 fluorescence intensity (a.u.)"},
      {"sequence": "ACCTCGTCCTACTCCTATCACATCATACCACACAGCAATGCGGAGTCACCTAGTGCAG", "binding signal": "8160 fluorescence intensity (a.u.)"},
      {"sequence": "ATCACTTTACTAACTTTTTCTTTATCCCCTCCTTTCTTCACGGAGTCACCTAGTGCAG", "binding signal": "8990 fluorescence intensity (a.u.)"},
      {"sequence": "ATTTTGGGAATCATTTCTTAGTTGTTCTGTATATATACGACGGAGTCACCTAGTGCAG", "binding signal": "8070 fluorescence intensity (a.u.)"},
      {"sequence": "CAGAACGACCGACCGTACTTCTGGTTCCCCGTCCACCTCCCGGAGTCACCTAGTGCAG", "binding signal": "9330 fluorescence intensity (a.u.)"},
      {"sequence": "AGCCCATCGAACGACCCACCTACGTACGCCGCGTGGTCCTCGGAGTCACCTAGTGCAG", "binding signal": "8270 fluorescence intensity (a.u.)"}
    ]}
  ]
}
